According to publication PMC12624140, “A conserved chronobiological complex times C. elegans development” (The EMBO Journal, 2025):
No constants are given. Whether binding was seen depends on the method and setting. Binding seen in cells or lysates may run through a third protein. Some binding calls cover weakened binding; strength is not graded here. Tags and fused reporters may be left off the sequences shown.

Molecular target: T1, 3xFLAG::HA::KIN-20 (endogenously tagged, kin-20(xe328[3xflag::ha::kin-20])) (C. elegans (endogenous in animals)) (UniProt Q20471)
T1 sequence: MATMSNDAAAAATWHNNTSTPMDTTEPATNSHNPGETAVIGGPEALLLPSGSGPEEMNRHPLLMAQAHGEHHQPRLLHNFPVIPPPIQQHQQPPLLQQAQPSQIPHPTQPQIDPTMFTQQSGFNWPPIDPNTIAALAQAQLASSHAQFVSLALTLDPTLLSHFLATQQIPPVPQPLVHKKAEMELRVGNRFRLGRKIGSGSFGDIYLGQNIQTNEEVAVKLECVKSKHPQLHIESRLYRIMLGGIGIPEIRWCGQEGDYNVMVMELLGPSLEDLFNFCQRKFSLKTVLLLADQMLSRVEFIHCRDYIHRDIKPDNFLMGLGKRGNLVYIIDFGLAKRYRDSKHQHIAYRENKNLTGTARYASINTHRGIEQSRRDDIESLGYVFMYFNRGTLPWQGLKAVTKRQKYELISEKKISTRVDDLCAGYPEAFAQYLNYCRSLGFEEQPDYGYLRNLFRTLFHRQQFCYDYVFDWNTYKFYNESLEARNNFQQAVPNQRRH
Experiment: co-IP; anti-HA magnetic beads, extracts of synchronized 3xflag::lin-42; 3xflag::ha::kin-20 animals (32 h at 25 °C); blot probed with anti-FLAG

binding: binds
B1: 3xFLAG::LIN-42 (endogenously tagged, lin-42(xe321[3xflag::lin-42])) (protein, UniProt Q65ZG8 1-597)
chain: MEPAGHSSATHNIVVPNANPTQPQPLAPAMREEGATLSPPNTWSSSSVEFLDDADDNRLLFTCTFTLPHGTVLSSATYADGFHEQYLTIGDNFLARLEPKGQSFILSAAAASVKQRIFARVTMPDGALRACELLCEFETDRAKITVLALRSAFSLQASHVSSNFHVFTFITKHSSTCALTHIDYASIPYLGLLPTDLIGKSLLAFVYSPDVHVVRQAHIDLHNSRGKIVKSIADLRLVAHNGSILRCQTEWSAYVNPWTRKMELVVARHRICSLPIGDSDVISSPPPGIQSNTLPPVMAKTFEDELRTIMNKPVPSTSRHSHHHHHSSLKDQNQGFPANIDLGAYIDKIVEQLVVNSTAQQQQKVAVAAAAAAQAAQAAVVATAQIRKVASAPPTTSTDPPLSYTQINCLENVHRLLKSQSRPESPAKQDEPFDEKKYPPQTPLTREALTLHTKRFEDEYKDTWCRRLKRLSDDVPSSPPAKRTTPIHWTSSSQNHYRTMAPAPPPPPGKNYQITYTPLDDLTDQKSTNTKSDVENVAYPISGSKFSTPMRLSIDGLLPRGATSTGGASPTSGTNSPPVFPKTSSSSSLLMLRDSQN
